Data taken from the supplement of paper PMC10849652.
This is one part of the list.

Protein sequences, listed by entry. Tags and fused reporters are not part of them. Lines headed by an entry give the natural chain unless they say otherwise; changes in a name come on top.
UniProt Q96QE2: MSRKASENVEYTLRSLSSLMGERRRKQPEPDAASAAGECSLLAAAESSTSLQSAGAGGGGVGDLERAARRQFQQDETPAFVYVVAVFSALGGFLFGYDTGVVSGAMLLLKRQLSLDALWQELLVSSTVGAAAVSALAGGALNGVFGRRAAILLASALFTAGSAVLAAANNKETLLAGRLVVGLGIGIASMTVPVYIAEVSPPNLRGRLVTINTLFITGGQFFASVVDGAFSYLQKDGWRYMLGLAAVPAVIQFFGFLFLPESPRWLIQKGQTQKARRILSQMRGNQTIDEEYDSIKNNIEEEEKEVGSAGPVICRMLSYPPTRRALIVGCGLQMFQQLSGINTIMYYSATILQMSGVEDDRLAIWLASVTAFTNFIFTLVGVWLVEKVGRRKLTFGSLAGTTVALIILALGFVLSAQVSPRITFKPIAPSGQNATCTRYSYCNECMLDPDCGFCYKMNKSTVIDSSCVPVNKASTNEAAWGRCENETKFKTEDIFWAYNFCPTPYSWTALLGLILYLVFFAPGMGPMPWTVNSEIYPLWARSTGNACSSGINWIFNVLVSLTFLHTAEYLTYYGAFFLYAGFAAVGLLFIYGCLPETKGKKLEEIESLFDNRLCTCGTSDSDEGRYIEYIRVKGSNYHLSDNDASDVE
UniProt Q5SVS4: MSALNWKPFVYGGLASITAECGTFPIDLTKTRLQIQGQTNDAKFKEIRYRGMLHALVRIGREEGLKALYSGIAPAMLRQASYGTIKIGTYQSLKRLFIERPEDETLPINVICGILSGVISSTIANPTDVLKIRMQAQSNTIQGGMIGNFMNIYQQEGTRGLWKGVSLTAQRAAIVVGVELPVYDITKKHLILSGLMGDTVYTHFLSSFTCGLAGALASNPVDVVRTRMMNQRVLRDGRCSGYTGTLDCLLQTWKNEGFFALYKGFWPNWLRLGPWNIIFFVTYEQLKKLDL
UniProt Q8N357: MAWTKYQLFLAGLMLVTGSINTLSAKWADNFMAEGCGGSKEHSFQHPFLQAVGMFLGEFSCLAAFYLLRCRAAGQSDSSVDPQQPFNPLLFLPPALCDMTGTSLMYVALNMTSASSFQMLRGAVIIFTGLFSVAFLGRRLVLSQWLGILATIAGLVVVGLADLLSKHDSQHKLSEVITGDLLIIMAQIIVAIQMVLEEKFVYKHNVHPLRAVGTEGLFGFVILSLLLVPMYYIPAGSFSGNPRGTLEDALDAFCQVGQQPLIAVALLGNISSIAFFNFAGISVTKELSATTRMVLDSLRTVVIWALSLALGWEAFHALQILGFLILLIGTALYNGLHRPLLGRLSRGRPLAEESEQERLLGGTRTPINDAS
UniProt Q0GE19: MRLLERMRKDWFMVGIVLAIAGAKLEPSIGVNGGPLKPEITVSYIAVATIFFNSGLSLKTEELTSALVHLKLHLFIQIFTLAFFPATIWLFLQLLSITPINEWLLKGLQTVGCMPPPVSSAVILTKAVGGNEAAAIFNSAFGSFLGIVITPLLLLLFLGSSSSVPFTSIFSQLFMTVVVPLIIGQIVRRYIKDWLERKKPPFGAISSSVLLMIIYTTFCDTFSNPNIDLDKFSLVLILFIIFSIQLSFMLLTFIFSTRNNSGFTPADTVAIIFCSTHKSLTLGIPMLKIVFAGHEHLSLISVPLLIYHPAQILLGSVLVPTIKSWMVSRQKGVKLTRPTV
UniProt Q7Z769: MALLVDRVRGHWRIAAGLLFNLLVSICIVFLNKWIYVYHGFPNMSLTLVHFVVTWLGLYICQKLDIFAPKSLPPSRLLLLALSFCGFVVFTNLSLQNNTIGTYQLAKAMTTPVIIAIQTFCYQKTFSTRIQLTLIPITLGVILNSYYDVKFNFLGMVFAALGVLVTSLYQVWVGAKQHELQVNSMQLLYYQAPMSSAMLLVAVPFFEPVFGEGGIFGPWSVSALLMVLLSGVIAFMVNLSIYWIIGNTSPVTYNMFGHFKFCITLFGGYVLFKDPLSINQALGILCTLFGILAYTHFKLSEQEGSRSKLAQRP
UniProt Q9NRA2: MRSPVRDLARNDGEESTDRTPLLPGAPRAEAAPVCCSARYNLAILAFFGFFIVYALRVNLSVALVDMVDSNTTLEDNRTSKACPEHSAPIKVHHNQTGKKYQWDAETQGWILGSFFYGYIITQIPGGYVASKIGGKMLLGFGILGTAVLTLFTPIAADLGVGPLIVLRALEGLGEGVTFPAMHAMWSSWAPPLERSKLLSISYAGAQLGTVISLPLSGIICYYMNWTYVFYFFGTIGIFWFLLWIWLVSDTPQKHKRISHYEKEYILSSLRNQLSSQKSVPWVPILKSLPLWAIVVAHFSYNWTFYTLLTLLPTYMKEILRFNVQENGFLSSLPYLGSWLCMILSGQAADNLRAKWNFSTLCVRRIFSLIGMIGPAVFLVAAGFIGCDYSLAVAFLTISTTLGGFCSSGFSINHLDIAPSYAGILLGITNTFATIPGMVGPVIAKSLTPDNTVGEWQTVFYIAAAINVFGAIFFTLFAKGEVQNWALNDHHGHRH
UniProt P14672: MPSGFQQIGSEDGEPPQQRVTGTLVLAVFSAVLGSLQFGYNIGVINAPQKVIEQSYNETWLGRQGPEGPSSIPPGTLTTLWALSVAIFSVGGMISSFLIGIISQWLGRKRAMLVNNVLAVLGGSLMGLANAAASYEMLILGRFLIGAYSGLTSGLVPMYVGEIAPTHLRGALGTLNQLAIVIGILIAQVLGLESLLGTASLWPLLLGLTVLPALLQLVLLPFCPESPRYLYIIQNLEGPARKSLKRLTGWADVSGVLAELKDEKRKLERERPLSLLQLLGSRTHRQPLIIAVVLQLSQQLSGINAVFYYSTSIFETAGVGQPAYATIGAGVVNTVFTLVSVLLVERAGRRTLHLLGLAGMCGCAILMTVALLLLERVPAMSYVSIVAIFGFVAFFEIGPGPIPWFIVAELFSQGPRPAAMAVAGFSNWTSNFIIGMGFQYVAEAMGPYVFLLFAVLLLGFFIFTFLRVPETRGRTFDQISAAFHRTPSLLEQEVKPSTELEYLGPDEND
UniProt Q9BRY0: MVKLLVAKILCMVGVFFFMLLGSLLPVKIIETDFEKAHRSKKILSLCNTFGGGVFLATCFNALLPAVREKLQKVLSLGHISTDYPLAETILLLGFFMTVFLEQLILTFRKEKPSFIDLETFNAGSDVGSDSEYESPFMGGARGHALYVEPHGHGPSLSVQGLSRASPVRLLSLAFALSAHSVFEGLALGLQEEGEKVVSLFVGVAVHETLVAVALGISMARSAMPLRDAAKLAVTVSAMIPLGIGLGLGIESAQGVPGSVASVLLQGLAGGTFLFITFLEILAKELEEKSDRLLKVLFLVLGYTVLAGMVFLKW
UniProt O60779: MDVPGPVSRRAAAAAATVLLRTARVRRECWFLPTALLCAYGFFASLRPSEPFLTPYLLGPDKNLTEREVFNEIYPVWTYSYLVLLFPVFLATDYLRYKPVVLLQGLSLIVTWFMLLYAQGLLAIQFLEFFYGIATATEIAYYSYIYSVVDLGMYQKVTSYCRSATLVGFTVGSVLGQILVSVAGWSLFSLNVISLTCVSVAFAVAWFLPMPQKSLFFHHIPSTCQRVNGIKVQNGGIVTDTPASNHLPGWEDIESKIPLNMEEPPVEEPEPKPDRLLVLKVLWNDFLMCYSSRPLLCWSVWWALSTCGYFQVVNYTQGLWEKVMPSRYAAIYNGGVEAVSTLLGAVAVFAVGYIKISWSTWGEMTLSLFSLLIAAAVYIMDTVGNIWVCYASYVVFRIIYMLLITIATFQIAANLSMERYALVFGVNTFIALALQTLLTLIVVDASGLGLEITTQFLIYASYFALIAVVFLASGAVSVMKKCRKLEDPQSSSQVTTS
UniProt Q9BS91: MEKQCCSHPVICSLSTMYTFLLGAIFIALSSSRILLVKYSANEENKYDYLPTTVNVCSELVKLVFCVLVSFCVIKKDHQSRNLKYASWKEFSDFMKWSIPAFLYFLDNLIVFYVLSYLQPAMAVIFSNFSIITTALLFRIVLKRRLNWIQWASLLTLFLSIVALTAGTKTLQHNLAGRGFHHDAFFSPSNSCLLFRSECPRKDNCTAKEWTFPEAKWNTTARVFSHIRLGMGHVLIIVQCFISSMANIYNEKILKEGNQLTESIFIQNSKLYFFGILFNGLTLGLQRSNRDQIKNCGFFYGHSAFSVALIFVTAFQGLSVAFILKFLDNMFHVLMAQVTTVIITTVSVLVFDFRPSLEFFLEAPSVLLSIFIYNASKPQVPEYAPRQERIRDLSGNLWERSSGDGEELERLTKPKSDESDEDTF
UniProt P43003, whole entry, looked up: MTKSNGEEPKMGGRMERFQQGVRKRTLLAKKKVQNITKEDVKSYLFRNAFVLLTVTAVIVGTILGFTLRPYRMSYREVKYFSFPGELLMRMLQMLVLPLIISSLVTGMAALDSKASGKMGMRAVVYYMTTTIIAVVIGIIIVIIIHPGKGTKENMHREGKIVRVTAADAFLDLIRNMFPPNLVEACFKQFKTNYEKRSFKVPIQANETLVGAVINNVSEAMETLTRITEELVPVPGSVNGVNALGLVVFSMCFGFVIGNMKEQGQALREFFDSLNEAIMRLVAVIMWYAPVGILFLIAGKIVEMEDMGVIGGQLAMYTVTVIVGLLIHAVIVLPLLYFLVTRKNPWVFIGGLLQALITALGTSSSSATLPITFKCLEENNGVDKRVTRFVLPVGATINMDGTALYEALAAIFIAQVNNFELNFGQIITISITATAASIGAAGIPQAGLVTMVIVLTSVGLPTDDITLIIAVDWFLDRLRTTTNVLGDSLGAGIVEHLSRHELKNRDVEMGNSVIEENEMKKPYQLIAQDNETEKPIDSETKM
UniProt Q9H015: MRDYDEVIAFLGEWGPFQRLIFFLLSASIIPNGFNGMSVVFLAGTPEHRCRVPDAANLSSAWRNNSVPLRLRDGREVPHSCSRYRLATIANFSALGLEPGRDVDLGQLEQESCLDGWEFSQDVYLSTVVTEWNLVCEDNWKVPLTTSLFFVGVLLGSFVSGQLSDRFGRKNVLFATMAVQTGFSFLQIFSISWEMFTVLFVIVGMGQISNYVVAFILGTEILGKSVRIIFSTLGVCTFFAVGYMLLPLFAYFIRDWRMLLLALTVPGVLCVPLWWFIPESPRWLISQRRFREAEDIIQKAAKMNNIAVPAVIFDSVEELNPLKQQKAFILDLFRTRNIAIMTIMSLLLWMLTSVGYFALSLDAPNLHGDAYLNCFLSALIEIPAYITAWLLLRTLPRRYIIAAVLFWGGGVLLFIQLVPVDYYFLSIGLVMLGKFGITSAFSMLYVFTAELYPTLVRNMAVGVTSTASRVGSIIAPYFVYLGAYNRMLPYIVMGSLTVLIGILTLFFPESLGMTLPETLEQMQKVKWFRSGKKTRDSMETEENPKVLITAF
UniProt Q6YBV0: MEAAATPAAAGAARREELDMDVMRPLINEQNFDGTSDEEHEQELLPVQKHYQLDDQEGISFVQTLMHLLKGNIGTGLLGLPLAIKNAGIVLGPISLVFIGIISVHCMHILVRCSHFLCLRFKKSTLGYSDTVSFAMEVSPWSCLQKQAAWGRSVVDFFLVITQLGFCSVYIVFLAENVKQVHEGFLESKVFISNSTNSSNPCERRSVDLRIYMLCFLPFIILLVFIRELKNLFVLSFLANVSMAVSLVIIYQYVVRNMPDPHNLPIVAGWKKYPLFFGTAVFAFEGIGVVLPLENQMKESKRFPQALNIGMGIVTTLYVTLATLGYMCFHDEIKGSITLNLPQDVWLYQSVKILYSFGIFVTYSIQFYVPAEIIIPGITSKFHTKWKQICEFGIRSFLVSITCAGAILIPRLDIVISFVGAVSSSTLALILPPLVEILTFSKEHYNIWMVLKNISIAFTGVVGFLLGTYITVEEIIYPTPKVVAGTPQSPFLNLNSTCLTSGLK
UniProt Q9Y2P4: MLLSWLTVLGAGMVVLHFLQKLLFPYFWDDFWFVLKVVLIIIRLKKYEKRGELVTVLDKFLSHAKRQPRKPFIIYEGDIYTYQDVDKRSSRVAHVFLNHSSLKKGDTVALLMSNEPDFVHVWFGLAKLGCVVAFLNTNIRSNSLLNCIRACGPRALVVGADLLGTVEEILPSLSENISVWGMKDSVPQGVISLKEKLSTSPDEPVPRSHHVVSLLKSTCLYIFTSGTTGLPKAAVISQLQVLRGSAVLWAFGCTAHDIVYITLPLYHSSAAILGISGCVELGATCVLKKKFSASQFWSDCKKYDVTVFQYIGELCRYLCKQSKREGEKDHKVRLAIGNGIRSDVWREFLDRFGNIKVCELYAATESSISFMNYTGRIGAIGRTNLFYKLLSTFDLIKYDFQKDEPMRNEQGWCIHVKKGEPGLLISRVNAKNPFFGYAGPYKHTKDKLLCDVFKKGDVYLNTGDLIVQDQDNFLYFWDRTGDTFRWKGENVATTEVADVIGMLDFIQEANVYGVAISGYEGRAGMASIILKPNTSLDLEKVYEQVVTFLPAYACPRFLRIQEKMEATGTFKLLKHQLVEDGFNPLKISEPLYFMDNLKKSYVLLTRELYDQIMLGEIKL

The targets below were run with CC(=O)c1cnc2ccc(-c3cc(Cl)c(O)c(Cl)c3)nc2c1N[C@H]1CC[C@H](CN(C)C)CC1 (assay: log2 fold change, soluble protein after heating vs DMSO (PISA); higher = thermal stabilisation; K562 cells, 10 uM, 30 min; active = over 0.2 and 3.5 SD of the protein, either way, in both replicates (recomputed)).
Summary of the method: (§1)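 For each measurement, 10 μM compound was applied for 30 min to K562 cells at 2×10^6 cells/mL. Aliquots were heated for 3 min across 48°C-58°C, pooled, and extracted in PBS with 0.5% NP-40 at 4°C; the supernatant after 21,000xg for 90 min was soluble protein. This was quantified by TMTpro 16plex LC-MS/MS with channel sums equalised, and thermal stability was reported relative to control samples from duplicates, on a log2 fold-change scale.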

| Target | log2 fold change |
| --- | --- |
| SLC35G1 (UniProt Q2M3R5) | inactive: -0.143 |
| SLC35D1 (UniProt Q9NTN3) | inactive: 0.002 |
| SLC2A13 (UniProt Q96QE2) | inactive: -0.088 |
| SLC25A30 (UniProt Q5SVS4) | inactive: 0.008 |
| SLC35F6 (UniProt Q8N357) | inactive: -0.016 |
| SLC10A7 isoform 1 (UniProt Q0GE19) | inactive: -0.012 |
| SLC35E3 (UniProt Q7Z769) | inactive: -0.032 |
| SLC17A5 (UniProt Q9NRA2) | inactive: -0.042 |
| SLC39A8 (UniProt Q9C0K1) | inactive: 0.004 |
| SLC2A4 (UniProt P14672) | inactive: 0.077 |
| SLC39A3 (UniProt Q9BRY0) | inactive: -0.292 |
| SLC19A2 (UniProt O60779) | inactive: -0.103 |
| SLC46A1 (UniProt Q96NT5) | inactive: -0.008 |
| SLC35A5 (UniProt Q9BS91) | inactive: 0.027 |
| SLC1A3 (UniProt P43003) | inactive: 0.056 |
| SLC22A4 (UniProt Q9H015) | inactive: -0.042 |
| SLC25A35 (UniProt Q3KQZ1) | inactive: -0.198 |
| SLC4A3 isoform 3 (UniProt P48751) | inactive: -0.129 |

Each target was assayed with CC(C)(C)Cn1c(N)nc2ccc(-c3[nH]c(C(C)(C)C)nc3-c3ccc(F)cc3)nc21 [ralimetinib] in the same assay as above.
Summary of the method: as §1

| Target | log2 fold change |
| --- | --- |
| SLC36A4 (UniProt Q6YBV0) | inactive: -0.427 |
| SLC2A13 (UniProt Q96QE2) | inactive: 0.02 |
| SLC25A30 (UniProt Q5SVS4) | inactive: -0.106 |
| SLC35F6 (UniProt Q8N357) | inactive: -0.18 |
| SLC10A7 isoform 1 (UniProt Q0GE19) | inactive: 0.035 |
| SLC22A23 (UniProt A1A5C7) | inactive: -0.027 |
| SLC27A6 (UniProt Q9Y2P4) | inactive: 0.082 |
| SLC17A5 (UniProt Q9NRA2) | inactive: 0.07 |
| SLC25A29 (UniProt Q8N8R3) | inactive: 0.028 |
| SLC39A8 (UniProt Q9C0K1) | inactive: -0.045 |
| SLC2A4 (UniProt P14672) | inactive: 0.097 |
| SLC39A3 (UniProt Q9BRY0) | inactive: -0.168 |
| SLC19A2 (UniProt O60779) | inactive: 0.055 |
| SLC1A3 (UniProt P43003) | inactive: 0.058 |
| SLC22A4 (UniProt Q9H015) | inactive: -0.096 |
| SLC41A1 (UniProt Q8IVJ1) | inactive: -0.116 |

These targets were tested with CC(C)(O)CC(=O)NCCn1ccc2ncnc(Nc3ccc(Oc4cccc(C(F)(F)F)c4)c(Cl)c3)c21 in the same assay as above.
Summary of the method: as §1

| Target | log2 fold change |
| --- | --- |
| SLC43A3 (UniProt Q8NBI5) | inactive: -0.093 |
| SLC66A3 (UniProt Q8N755) | inactive: 0.173 |
| SLC36A4 (UniProt Q6YBV0) | inactive: 0.044 |
| SLC2A13 (UniProt Q96QE2) | inactive: 0.059 |
| SLC35F6 (UniProt Q8N357) | inactive: 0.061 |
| SLC35E3 (UniProt Q7Z769) | inactive: -0.535 |
| SLC66A2 (UniProt Q8N2U9) | inactive: -0.056 |
| SLC27A6 (UniProt Q9Y2P4) | inactive: -0.134 |
| SLC39A8 (UniProt Q9C0K1) | inactive: -0.069 |
| SLC39A3 (UniProt Q9BRY0) | inactive: -0.014 |
| SLC26A2 (UniProt P50443) | inactive: -0.317 |
| SLC10A3 (UniProt P09131) | inactive: -0.088 |
| SLC19A2 (UniProt O60779) | inactive: 0.156 |
| SLC35A5 (UniProt Q9BS91) | inactive: -0.114 |
| SLC1A3 (UniProt P43003) | inactive: 0.007 |
| SLC22A4 (UniProt Q9H015) | inactive: 0.021 |
| SLC41A1 (UniProt Q8IVJ1) | inactive: -0.399 |
| SLC3A2 (UniProt F5H867) | inactive: -0.007 |
| SLC35F5 (UniProt Q8WV83) | inactive: -0.062 |

Each target was assayed with CC(C)C1=C2N=C(C=C(N2N=C1)NCC3=CC=CC=C3)NCCCCCCN in the same assay as above.
Summary of the method: as §1

| Target | log2 fold change |
| --- | --- |
| SLC66A3 (UniProt Q8N755) | inactive: 0.08 |
| SLC36A4 (UniProt Q6YBV0) | inactive: -0.166 |
| SLC52A2 (UniProt Q9HAB3) | inactive: -0.209 |
| SLC23A2 (UniProt Q9UGH3) | inactive: 0.016 |
| SLC2A13 (UniProt Q96QE2) | inactive: 0.044 |
| SLC25A30 (UniProt Q5SVS4) | inactive: -0.059 |
| SLC35F6 (UniProt Q8N357) | inactive: -0.22 |
| SLC66A1 (UniProt Q6ZP29) | inactive: -0.122 |
| SLC10A7 isoform 1 (UniProt Q0GE19) | inactive: 0.018 |
| SLC35E3 (UniProt Q7Z769) | inactive: 0.065 |
| SLC66A2 (UniProt Q8N2U9) | inactive: 0.055 |
| SLC22A23 (UniProt A1A5C7) | inactive: 0.147 |
| SLC27A6 (UniProt Q9Y2P4) | inactive: -0.307 |
| SLC17A5 (UniProt Q9NRA2) | inactive: -0.205 |
| SLC25A29 (UniProt Q8N8R3) | inactive: -0.165 |
| SLC39A8 (UniProt Q9C0K1) | inactive: -0.136 |
| SLC2A4 (UniProt P14672) | inactive: -0.045 |
| SLC39A3 (UniProt Q9BRY0) | inactive: 0.049 |
| SLC10A3 (UniProt P09131) | inactive: -0.302 |
| SLC39A1 (UniProt Q9NY26) | active: -1.06 |
| SLC19A2 (UniProt O60779) | inactive: -0.008 |
| SLC46A1 (UniProt Q96NT5) | inactive: -0.04 |
| SLC35A5 (UniProt Q9BS91) | inactive: -0.016 |
| SLC1A3 (UniProt P43003) | inactive: 0.238 |
| SLC25A35 (UniProt Q3KQZ1) | inactive: 0.023 |
| SLC36A1 (UniProt Q7Z2H8) | inactive: -0.428 |
| SLC3A2 (UniProt F5H867) | inactive: 0.015 |
